Measured values taken from PubChem BioAssay AID504810 (National Center for Advancing Translational Sciences (NCATS), 2011).
“And” between values parts separate entries of the source, which are not always exact repeats. Equal entries are not always repeated. The campaign covered roughly 330,000 compounds. About 670 (0.2%) were called active. The inconclusive results got no clear call from the source; some entries with a clear call stand among them for comparison.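 How the source made its calls: active means activity change below a set negative limit, meaning inhibition stronger than a set level (cut at about -70% in these data); inconclusive means activity change between two set negative limits; inactive means the rest.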

By UniProt entry, the sequences of proteins in these tests, tags left out.
UniProt P16473, whole entry, looked up: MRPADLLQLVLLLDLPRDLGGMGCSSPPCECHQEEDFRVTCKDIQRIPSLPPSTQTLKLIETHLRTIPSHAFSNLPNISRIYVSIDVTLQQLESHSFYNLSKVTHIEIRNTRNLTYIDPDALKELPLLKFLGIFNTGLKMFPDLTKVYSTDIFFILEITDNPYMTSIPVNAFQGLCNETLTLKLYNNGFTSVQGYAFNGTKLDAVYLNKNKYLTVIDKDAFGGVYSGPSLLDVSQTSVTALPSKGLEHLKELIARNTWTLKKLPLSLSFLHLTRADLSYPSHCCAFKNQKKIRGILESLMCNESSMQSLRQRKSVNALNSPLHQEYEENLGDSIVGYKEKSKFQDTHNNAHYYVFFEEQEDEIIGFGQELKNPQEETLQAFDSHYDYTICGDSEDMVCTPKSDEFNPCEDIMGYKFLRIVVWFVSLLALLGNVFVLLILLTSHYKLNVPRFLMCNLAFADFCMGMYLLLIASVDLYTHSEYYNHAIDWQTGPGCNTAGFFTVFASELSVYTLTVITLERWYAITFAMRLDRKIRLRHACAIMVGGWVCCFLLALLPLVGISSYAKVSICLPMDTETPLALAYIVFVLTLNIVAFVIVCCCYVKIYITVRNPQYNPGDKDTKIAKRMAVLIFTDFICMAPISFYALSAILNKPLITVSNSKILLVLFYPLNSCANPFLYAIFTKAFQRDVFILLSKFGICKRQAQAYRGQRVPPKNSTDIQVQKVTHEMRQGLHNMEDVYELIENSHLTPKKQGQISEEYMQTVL

molecular target: Thyrotropin receptor (Homo sapiens) (UniProt P16473); test: Antagonists of the Thyroid Stimulating Hormone Receptor: HTS campaign; conditions: TSHR-expressing cells, TSH-stimulated cAMP HTRF, 2 h; at 11.5 µM; active compounds read low
In short: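 Competitive HTRF cAMP read-out (cryptate anti-cAMP antibody, cAMP-d2; 30 min, room temperature) in freshly harvested TSHR cells. Compounds added before TSH at EC80 (4nM final), followed by 2 hours' incubation at 37 deg C.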
On the % scale 0 is the no-effect control and ±100 the full control effect.

Structure (SMILES)	activity change, negative = inhibition
Cc1c(C(=O)N2CCN(c3ccc(F)cc3)CC2)sc2ncnc(N3CCN(c4ccccn4)CC3)c12	inactive: -29.2%
Cc1nn(CC(=O)Nc2ccc3c(c2)OCCO3)c(C)c1[N+](=O)[O-]	inactive: 3.8%
Brc1nnc2n1-c1ccccc1Sc1ccccc1-2	inconclusive: -62.9%
CCn1nc(C)cc1-c1nnc(Sc2ncc([N+](=O)[O-])s2)n1C	active: -91.8%
O=C1NC(=S)S/C1=C\c1ccc(SCc2ccccc2)o1	inconclusive: -58.6%
Cc1nn(C)c(C(=O)NNC(=S)Nc2ccc(Cl)cc2)c1[N+](=O)[O-]	inactive: 8.72%
O=C(Nc1ncc(S(=O)(=O)c2ccc([N+](=O)[O-])cc2)s1)c1cccc2ccccc12	active: -82.2%
CCc1c(C)nc2nc(SCc3ccccc3)[nH]n2c1=O	inactive: -2.11%
Cc1ccc(C)c(S(=O)(=O)Nc2ccc3scnc3c2)c1	inconclusive: -65.8%
Nc1nc(SCC(=O)C23CC4CC(CC(C4)C2)C3)n[nH]1	active: -76.2%
CCOP(=O)(OCC)c1nc(-c2ccc(OC)cc2)oc1N1CCOCC1	inactive: -11.2%
Cc1ccccc1NC1=C/C(=N\S(=O)(=O)c2ccc(C(=O)O)cc2)c2ccccc2C1=O	inconclusive: -57.1%
Cc1nn(-c2ccc(C(F)(F)F)cn2)c(C)c1Oc1ccccc1O	inconclusive: -57%
Cc1ccc(C)c(NC(=O)CCc2nnc3ccc(N4CCCCC4)nn23)c1	inconclusive: -61.9%
O=C(Cn1cnc2ccccc21)Nc1ccc2c(c1)OCCCO2	inconclusive: -57.8%
CN(C)NC(=S)Nc1ccc(Cl)cc1	inactive: 3.6%
COc1ccc(NC(=O)Cc2nc3ccccc3[nH]2)cc1	inconclusive: -64.8%
O=C1/C(=C/c2cccnc2)CCC/C1=C\c1cccnc1	inactive: 0.896%
CCOc1ccc(C2C3=C(Nc4nc(N)[nH]c(=O)c42)c2ccccc2C3=O)cc1 (stereo unspecified)	inactive: -4.15%
Cc1ccc(NC(=O)CSc2nc3ncc(Br)cc3[nH]2)cc1C	active: -87.8%
CCCCC(c1nnnn1C1CCCC1)N1CCN(C(=O)c2ccco2)CC1 (stereo unspecified)	inactive: -4.89%
Cc1cc(C(=O)COC(=O)c2ccc(O)cc2O)c(C)n1-c1ccccc1	inconclusive: -58.6%

Structure (SMILES)	activity change, negative = inhibition
O=C(CC1C(=O)NCCN1Cc1cccc(F)c1F)NCCCC1CCCC1 (stereo unspecified)	active: -82.4%
CCN(CC)S(=O)(=O)c1cc(NC(=O)NCCCl)ccc1C	active: -71.2%
COc1ccccc1OCC(=O)N/N=C1\CCc2ccccc21	inactive: 1%
N#C/C(=C(/O)COC(=O)c1ccc(Cl)c(S(=O)(=O)N2CCOCC2)c1)c1nc2ccccc2[nH]1	inactive: -13.1%
Oc1ccc(CCNc2ncnc3ccc(Cl)cc23)cc1	inconclusive: -52.1%
O=C(/C=C/c1ccc(O)c([N+](=O)[O-])c1)c1ccc2ccccc2c1	inconclusive: -63.2%
CCOc1cc(C)c(Cl)cc1S(=O)(=O)n1nnc2ccccc21	inconclusive: -52.1%
O=S(=O)(Nc1cc(Cl)ccc1-n1cncn1)c1cc(Br)ccc1Br	inconclusive: -56.4%
COc1ccc(-n2ncc3c(N(C)C4CCCCC4)ncnc32)cc1	inconclusive: -55.1%
O=S(=O)(Nc1ccc(O)c(Sc2nc3ccccc3s2)c1)c1cccc2ccccc12	active: -88%
CCCC(c1nnnn1Cc1ccc(OC)cc1)N1CCN(c2ccccc2OC)CC1 (stereo unspecified)	inconclusive: -63.8%
COC(=O)c1ccccc1OCCCN(C)C	inactive: 7.13%
CC(C)c1nnc(NC(=O)c2nc(S(=O)(=O)Cc3ccc(F)cc3)ncc2Cl)s1	active: -75.1%
CC(=O)N[C@@H](Cc1ccc(O)cc1)C(=O)N[C@H](C(=O)N[C@@H](C)C(=O)N[C@H](C#N)CC(=O)O)C(C)C	inactive: 0.797%
CC1=CC(=O)C=C(C)C1=NOS(=O)(=O)c1ccccc1	inconclusive: -54.6%
Cc1cccc(CS(=O)(=O)c2ncc(Cl)c(C(=O)Nc3ccc(F)cc3)n2)c1	inconclusive: -63.9%
Cc1ccnc(NC(=O)c2ccc(S(=O)(=O)NCc3ccco3)cc2)c1	inactive: 8.78%
Cc1cc(C(F)F)n2ncc(C(=O)NCc3ccc(F)cc3)c2n1	inconclusive: -51.9%
COc1ccc(Cn2nnnc2C(CC(C)C)N2CCN(c3ccccc3)CC2)cc1 (stereo unspecified)	active: -72%
Cc1ccc(-c2csc(N(CCO)CCCn3c(C(F)(F)F)nc4ccccc43)n2)cc1	inconclusive: -67.5%
NS(=O)(=O)c1ccc(CCNC(=O)c2cc3ccccc3s2)cc1	active: -103%
O=C(NCC1CCCN(C(=O)c2cccc(C(F)(F)F)c2)C1)c1ccc(F)cc1 (stereo unspecified)	active: -132%

Some of the entries so far, as comma-separated lines:
Structure (SMILES),"activity change, negative = inhibition"
CC(C)c1nnc(NC(=O)c2nc(S(=O)(=O)Cc3ccc(F)cc3)ncc2Cl)s1,active: -75.1%
CC(=O)N[C@@H](Cc1ccc(O)cc1)C(=O)N[C@H](C(=O)N[C@@H](C)C(=O)N[C@H](C#N)CC(=O)O)C(C)C,inactive: 0.797%

Additional structures.

Structure (SMILES)	activity change, negative = inhibition
Cc1ccc(-c2nnc(SCC(=O)NC3CCCC3)n2C)cc1	active: -93.8%
Cc1c(Cl)sn(-c2ccc(Cl)cc2)c1=O	active: -87.8%
O=C(Nc1cccc(O)c1)c1cc(-c2cccs2)on1	inactive: -6.38%
Cc1noc2ncc(C(=O)c3cc(F)ccc3O)cc12	inactive: 1.37%
C=C1C=C(C(F)F)n2ncc(C(=O)Nc3ccc(C(C)CC)cc3)c2N1 (stereo unspecified)	inconclusive: -65.4%
COc1cc(/C=C/c2ccc3cccc([N+](=O)[O-])c3n2)ccc1OCC#N	inconclusive: -52.1%
Cc1ccc(N2CC(C(=O)NCCN3CCOCC3)CC2=O)cc1C (stereo unspecified)	inconclusive: -68.2%
O=C(Nc1nnc(SCc2ccccc2Cl)s1)c1cccc([N+](=O)[O-])c1	inconclusive: -66.3%
O=C(CCNS(=O)(=O)c1ccc(Cl)cc1)N1CCN(c2ccccn2)CC1	inactive: 2.05%
Brc1ccc2[nH]c3c(N4CCc5ccccc5C4)ncnc3c2c1	active: -76.7%
Cc1ccc(/C=C2/C(=O)N(c3ccccc3)C(=S)N2C)o1	inactive: -5.3%
Cc1ccc(NC(=O)c2cccc(OCc3c(C)noc3C)c2)cc1S(=O)(=O)Nc1ccccc1Cl	inconclusive: -52.5%
CC1CCc2c(sc(NC(=O)c3ccco3)c2C(=O)O)C1 (stereo unspecified)	inconclusive: -51.1%
O=C(NCCCCc1ccccc1)NC[C@@H]1CC[C@@H](Cc2ccc(-c3ccccc3)cc2)O1	inconclusive: -62.6%
O=C(c1ccc(-c2ccccc2)cc1)c1ccc([N+](=O)[O-])cc1	inactive: -1.59%
O=Cc1s/c(=N\S(=O)(=O)c2ccccc2)n(CCCCl)c1Cl	active: -70.1%
CC(CCC(C)C(C)(C)C)[C@@H]1CC[C@H]2C3C[C@H](OS(O)(=S)=S)[C@H]4C[C@H](OS(O)(=S)=S)[C@@H](OS(O)(=S)=S)C[C@]4(C)[C@H]3CC[C@]12C (stereo partly specified) (tested in a mixture with another compound)	active: -82.1% and active: -83.1%
COc1cccc(CN(C)C(=O)c2ccc(OCC(=O)Nc3cccc(C(F)(F)F)c3)c(OC)c2)c1	inconclusive: -57%
COCCNC(=O)CN1C(=O)c2cccc3cccc1c23	active: -127%
CCN(CC)CCCOc1nc(C)nc2c1oc1ccccc12	inactive: 7.02%
[O-]/C(=C(\C(=S)Nc1ccc(SC(F)F)cc1)[n+]1ccccc1)c1cc(Cl)ccc1Cl	inconclusive: -67.8%
O=C(CS(=O)c1ccc(C(F)(F)F)cc1[N+](=O)[O-])Oc1ccccc1 (stereo unspecified)	active: -70.7%

Nothing new here: entries from further up.
Structure (SMILES)	activity change, negative = inhibition
CC(C)c1nnc(NC(=O)c2nc(S(=O)(=O)Cc3ccc(F)cc3)ncc2Cl)s1	active: -75.1%
CC(=O)N[C@@H](Cc1ccc(O)cc1)C(=O)N[C@H](C(=O)N[C@@H](C)C(=O)N[C@H](C#N)CC(=O)O)C(C)C	inactive: 0.797%
CC1=CC(=O)C=C(C)C1=NOS(=O)(=O)c1ccccc1	inconclusive: -54.6%
Cc1cccc(CS(=O)(=O)c2ncc(Cl)c(C(=O)Nc3ccc(F)cc3)n2)c1	inconclusive: -63.9%
Cc1ccnc(NC(=O)c2ccc(S(=O)(=O)NCc3ccco3)cc2)c1	inactive: 8.78%

Later entries.

Structure (SMILES)	activity change, negative = inhibition
CCOc1ccccc1NC(=O)c1cc(C(=O)c2cc(Br)ccc2O)coc1=N	inconclusive: -60.1%
CC(C)C(C)NC(=O)COc1ccc(Sc2ccc(OCC(=O)NC(C)C(C)C)cc2)cc1 (stereo unspecified)	inconclusive: -52.9%
O=C1CCCN1c1ccc(S(=O)(=O)Oc2ccc(Cl)cc2)cc1[N+](=O)[O-]	inconclusive: -66.1%
CN(C)Cc1c(C(=O)N/N=C/c2cccc(OCc3ccccc3)c2)nnn1-c1nonc1N	inconclusive: -59.6%
O=S(=O)(c1ccc(SCc2ccccc2F)nc1)N1CCCC1	inconclusive: -56.7%
O=C(OCn1ncc(Cl)c(Cl)c1=O)c1ccc(F)cc1	inconclusive: -65.9%
COc1cccc(CNC(=O)CCCC(=O)NC(C)CCc2ccccc2)c1 (stereo unspecified)	active: -130%
Cc1sc(NC(=O)/C=C/c2ccc3c(c2)OCO3)nc1-c1ccccc1	inconclusive: -63.7%
Cc1ccc(-c2nc3ccc(C(=O)O)cc3nc2-c2ccc(C)cc2)cc1	inconclusive: -52.9%
COc1ccc(N2CCN(C(c3nnnn3CCc3ccccc3)C(C)C)CC2)cc1 (stereo unspecified)	inconclusive: -69.5%
COc1cc2c(cc1OC)C(c1ccc(-c3cc(Cl)ccc3Cl)o1)=NCC2	inconclusive: -50.2%
COc1cc(CCc2ccccc2)c(C(=O)O)c(O)c1C/C=C(/C)CCC=C(C)C	inconclusive: -50.7%
COc1ccc(OC)c(-c2csc(NC(=O)c3ccc4c(c3)OCO4)n2)c1	inconclusive: -64.3%
COc1ccc(NC(=O)COc2ccc(N(C)S(=O)(=O)c3ccc(Cl)cc3)cc2)cc1OC	inconclusive: -57.6%
COC(=O)N1C(=O)[C@@](c2ccccc2)(C(C)C)N1C(=O)OC	inactive: 17.6%
Cc1ccc(S(=O)(=O)Nc2ccc(O)c3ccccc23)c(C)c1	inactive: 7.41%
Oc1ccc(Cl)cc1Cc1cc(Cl)ccc1O	inconclusive: -69.2%
CN(C(=O)CN1C(=O)/C(=C/c2ccccc2Cl)SC1=S)C1CCS(=O)(=O)C1 (stereo unspecified)	active: -126%
CC(=O)c1ccc(NC(=O)CSc2nc(N)c3cc4c(nc3n2)CCCC4)cc1	inactive: 11%
Cc1ccc(NC(=O)CCc2nnc3ccc(NCc4ccco4)nn23)nc1	active: -96.4%
